The target in experiment [1] is T1, PfHop, endogenous in P. falciparum parasites (Plasmodium falciparum (endogenous in parasites)) (UniProt Q8ILC1).
T1 sequence: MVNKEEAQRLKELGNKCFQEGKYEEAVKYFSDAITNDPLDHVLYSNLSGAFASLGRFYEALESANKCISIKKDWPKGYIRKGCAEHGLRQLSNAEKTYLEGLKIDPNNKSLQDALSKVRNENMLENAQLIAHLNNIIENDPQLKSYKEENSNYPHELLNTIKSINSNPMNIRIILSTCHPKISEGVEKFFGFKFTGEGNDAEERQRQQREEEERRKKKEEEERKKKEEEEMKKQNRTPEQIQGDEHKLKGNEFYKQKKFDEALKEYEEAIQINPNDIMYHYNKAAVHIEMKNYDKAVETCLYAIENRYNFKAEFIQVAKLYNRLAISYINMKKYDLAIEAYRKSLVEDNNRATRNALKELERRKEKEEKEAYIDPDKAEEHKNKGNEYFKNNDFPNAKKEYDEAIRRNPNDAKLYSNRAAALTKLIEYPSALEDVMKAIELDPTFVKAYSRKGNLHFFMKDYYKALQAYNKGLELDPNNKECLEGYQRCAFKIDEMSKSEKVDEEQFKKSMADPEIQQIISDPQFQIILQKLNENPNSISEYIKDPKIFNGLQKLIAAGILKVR
In words: co-IP; P. falciparum trophozoite lysate (about 300 μg protein) on resin coupled with anti-PfHop antibodies, 2 h at 4°C; 5 mM ATP or 5 mM ADP; Western blot with anti-PfHsp70-1 and anti-PfHop. In general terms: A western blot detects proteins with antibodies after separation by electrophoresis.

Protein sequences, listed by entry. Tags and fused reporters are not part of them. Lines headed by an entry give the natural chain unless they say otherwise; changes in a name come on top. Chains listed by the source or under a name are the forms on record and can include a tag or linker. Residues count along the entry.
UniProt Q8IB24: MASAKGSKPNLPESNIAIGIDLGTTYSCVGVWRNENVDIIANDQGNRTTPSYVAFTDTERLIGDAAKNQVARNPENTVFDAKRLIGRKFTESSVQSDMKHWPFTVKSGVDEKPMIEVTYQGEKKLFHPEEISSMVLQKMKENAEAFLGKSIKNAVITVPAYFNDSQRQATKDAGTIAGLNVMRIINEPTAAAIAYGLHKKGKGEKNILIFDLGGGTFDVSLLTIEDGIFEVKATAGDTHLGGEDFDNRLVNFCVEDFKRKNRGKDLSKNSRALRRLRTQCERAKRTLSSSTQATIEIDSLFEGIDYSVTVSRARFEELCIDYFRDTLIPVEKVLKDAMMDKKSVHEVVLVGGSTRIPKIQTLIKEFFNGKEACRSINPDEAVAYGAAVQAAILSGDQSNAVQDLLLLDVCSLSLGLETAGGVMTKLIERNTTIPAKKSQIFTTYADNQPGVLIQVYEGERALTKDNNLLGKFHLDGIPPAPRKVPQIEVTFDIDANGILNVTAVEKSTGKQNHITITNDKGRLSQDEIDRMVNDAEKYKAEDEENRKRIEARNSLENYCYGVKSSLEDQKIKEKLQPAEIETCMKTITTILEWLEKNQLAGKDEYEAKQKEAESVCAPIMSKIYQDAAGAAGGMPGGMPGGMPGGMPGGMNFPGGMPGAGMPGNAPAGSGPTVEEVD
ATPase subdomain of PfHsp70-1 (PfHsp70-1NBD), recombinant, his-tagged: residues 1-398 of Q8IB24

Experiment [2] deals with T2, Plasmodium falciparum Hsp70-Hsp90 organising protein (PfHop), recombinant, his-tagged (Plasmodium falciparum), Q8ILC1.
T2 chain: T1 sequence
In words: SPR; ProteOn XPR36, GLC chip, amine coupling; PfHop immobilised as ligand, PfHop 125-2000 nM as analyte (self-association); 25°C, PBS-Tween with 20 mM EDTA pH 7.4; no nucleotide, 5 mM ADP or 5 mM ATP; both purified. As to conditions: remark: other sources report otherwise. A general note: SPR reads the build-up and loss of mass on a sensor chip optically.

Experiment [3] concerns the target ATPase subdomain of PfHsp70-1 (PfHsp70-1NBD), recombinant, his-tagged (Plasmodium falciparum) (UniProt Q8IB24). In words: SPR; ProteOn XPR36, GLC chip, amine coupling; PfHsp70-1 or PfHsp70-1NBD (1 μg/mL) immobilised, PfHop 125-2000 nM as analyte (also repeated with ligand and analyte swapped); 25°C, PBS-Tween with 20 mM EDTA pH 7.4; no nucleotide, 5 mM ADP or 5 mM ATP; both purified.

No constants are given. Whether binding was seen depends on the method and setting. For part of these data: Binding seen in cells or lysates may run through a third protein. Some results given as binding are weak or reduced against the parent protein; the word gives no strength. For part of these data: Tags and fused reporters may be left off the sequences shown.

Turning to “PfHsp70-1, endogenous in P. falciparum parasites (from UniProt Q8IB24 1-677)”, in experiment [1], the binding entry is “binds”.

B1: Plasmodium falciparum Hsp70-Hsp90 organising protein (PfHop), recombinant, his-tagged, Q8ILC1 1-564 (protein)
chain: T1 sequence
As for B1, the binding result in experiment [2] is given as “binds”.

B2: Plasmodium falciparum Hsp70-Hsp90 organising protein (PfHop), recombinant, his-tagged (natural protein, UniProt Q8ILC1 1-564, looked up)
chain: T1 sequence
With B2, the binding entry in experiment [3] is “no binding (tested: 2 μM)”.
